Test results: PMC6680050
No constants are given. Whether binding was seen depends on the method and setting. Binding seen in cells or lysates may run through a third protein. Some binding calls cover weakened binding; strength is not graded here. Tags and fused reporters may be left off the sequences shown.

Target: T1, His-ULK1-FL (full length) (UniProt O75385)
T1 sequence: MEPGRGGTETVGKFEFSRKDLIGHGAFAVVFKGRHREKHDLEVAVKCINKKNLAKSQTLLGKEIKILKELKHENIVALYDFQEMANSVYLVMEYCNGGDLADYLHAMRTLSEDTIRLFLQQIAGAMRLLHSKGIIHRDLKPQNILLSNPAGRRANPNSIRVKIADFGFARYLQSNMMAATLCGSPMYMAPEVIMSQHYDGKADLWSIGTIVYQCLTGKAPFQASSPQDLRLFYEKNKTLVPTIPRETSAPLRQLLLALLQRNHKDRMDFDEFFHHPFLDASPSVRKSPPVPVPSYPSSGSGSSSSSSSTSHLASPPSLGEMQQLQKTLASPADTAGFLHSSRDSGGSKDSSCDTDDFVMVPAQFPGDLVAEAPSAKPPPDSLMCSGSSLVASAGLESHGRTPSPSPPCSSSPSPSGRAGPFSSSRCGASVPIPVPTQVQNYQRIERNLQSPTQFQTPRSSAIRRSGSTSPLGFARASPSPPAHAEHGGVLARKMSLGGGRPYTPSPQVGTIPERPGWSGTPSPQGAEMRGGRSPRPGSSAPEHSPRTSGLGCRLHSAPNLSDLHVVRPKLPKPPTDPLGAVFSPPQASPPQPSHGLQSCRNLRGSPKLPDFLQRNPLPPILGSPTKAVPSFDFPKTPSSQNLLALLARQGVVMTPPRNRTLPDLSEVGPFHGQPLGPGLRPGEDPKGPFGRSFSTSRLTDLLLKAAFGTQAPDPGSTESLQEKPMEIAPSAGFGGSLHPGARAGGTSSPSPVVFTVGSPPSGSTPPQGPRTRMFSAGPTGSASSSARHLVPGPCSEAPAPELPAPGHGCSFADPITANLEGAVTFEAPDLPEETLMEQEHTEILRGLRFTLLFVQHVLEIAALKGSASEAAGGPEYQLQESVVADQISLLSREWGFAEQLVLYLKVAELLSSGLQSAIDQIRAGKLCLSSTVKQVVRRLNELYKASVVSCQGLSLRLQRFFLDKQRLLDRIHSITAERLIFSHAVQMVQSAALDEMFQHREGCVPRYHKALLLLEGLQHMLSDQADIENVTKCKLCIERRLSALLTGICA
Assay: pull-down; His-ULK1-FL/KD/SPR/CTD on Ni-NTA beads mixed with H4 cell lysate; resin from empty-vector cells as negative control; TOPK detected by western blot; only the target purified

B1: endogenous TOPK of H4 cells (enzyme, UniProt Q96KB5 1-322)
chain: MEGISNFKTPSKLSEKKKSVLCSTPTINIPASPFMQKLGFGTGVNVYLMKRSPRGLSHSPWAVKKINPICNDHYRSVYQKRLMDEAKILKSLHHPNIVGYRAFTEANDGSLCLAMEYGGEKSLNDLIEERYKASQDPFPAAIILKVALNMARGLKYLHQEKKLLHGDIKSSNVVIKGDFETIKICDVGVSLPLDENMTVTDPEACYIGTEPWKPKEAVEENGVITDKADIFAFGLTLWEMMTLSIPHINLSNDDDDEDKTFDESDFDDEAYYAALGTRPPINMEELDESYQKVIELFSVCTNEDPKDRPSAAHIVEALETDV
For B1, which binding is on record?
The binding was “binds”.
